Measurements reported in publication PMC12515809.
No constants are given. Whether binding was seen depends on the method and setting. In cells and extracts the contact can be indirect. These calls come from enrichment with a bait or labelling near it, and not all partners need be listed.

The chains behind the UniProt entries cited, without tags or fusion partners.
UniProt O97159: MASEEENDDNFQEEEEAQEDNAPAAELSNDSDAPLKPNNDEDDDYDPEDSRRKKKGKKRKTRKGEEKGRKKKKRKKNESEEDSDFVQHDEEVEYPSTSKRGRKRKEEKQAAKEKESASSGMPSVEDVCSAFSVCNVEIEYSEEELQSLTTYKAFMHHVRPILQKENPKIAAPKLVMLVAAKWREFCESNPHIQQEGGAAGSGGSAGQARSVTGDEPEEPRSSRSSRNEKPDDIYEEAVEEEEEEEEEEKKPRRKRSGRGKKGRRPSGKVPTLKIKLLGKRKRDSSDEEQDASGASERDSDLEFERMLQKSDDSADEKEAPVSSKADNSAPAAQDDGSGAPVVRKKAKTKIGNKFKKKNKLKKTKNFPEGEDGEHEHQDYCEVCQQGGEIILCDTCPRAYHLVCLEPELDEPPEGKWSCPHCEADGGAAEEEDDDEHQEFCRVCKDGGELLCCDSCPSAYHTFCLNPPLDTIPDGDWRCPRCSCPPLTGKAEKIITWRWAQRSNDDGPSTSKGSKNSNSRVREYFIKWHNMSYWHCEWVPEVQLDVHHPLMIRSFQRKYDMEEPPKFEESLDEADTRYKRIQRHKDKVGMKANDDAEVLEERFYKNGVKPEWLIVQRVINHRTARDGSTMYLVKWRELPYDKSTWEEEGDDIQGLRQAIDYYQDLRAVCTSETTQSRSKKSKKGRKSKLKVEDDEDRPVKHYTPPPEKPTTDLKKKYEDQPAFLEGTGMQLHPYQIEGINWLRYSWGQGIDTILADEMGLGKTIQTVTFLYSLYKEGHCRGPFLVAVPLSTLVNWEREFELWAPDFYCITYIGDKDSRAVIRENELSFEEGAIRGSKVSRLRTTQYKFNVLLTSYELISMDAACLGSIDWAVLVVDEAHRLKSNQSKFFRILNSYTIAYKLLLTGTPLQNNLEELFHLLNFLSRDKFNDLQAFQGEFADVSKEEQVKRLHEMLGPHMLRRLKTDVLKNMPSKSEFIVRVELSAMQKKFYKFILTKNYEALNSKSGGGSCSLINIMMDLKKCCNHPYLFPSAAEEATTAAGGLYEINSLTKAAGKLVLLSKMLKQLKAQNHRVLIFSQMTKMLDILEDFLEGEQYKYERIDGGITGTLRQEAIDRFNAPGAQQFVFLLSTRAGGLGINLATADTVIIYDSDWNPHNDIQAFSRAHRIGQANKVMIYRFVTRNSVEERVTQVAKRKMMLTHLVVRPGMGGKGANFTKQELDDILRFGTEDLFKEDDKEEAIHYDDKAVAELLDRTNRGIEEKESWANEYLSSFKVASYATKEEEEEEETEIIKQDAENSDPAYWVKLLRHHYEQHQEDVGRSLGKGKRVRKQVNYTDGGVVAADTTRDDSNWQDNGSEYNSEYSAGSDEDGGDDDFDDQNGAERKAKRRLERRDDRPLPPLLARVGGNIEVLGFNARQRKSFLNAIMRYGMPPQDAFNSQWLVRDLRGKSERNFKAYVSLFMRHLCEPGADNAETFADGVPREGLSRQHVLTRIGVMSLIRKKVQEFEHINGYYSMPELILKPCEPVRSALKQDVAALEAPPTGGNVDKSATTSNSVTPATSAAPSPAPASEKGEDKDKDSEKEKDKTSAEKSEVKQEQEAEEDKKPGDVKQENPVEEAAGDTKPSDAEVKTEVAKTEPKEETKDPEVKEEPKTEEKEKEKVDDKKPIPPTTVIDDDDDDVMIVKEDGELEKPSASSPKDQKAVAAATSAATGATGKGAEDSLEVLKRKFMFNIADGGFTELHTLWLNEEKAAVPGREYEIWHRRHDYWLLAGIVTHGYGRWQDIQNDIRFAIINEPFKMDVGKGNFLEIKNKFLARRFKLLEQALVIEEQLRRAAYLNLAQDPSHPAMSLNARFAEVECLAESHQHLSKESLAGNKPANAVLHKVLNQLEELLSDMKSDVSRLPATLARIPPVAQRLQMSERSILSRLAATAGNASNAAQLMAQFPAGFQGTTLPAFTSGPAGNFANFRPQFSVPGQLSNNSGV
UniProt Q95V55: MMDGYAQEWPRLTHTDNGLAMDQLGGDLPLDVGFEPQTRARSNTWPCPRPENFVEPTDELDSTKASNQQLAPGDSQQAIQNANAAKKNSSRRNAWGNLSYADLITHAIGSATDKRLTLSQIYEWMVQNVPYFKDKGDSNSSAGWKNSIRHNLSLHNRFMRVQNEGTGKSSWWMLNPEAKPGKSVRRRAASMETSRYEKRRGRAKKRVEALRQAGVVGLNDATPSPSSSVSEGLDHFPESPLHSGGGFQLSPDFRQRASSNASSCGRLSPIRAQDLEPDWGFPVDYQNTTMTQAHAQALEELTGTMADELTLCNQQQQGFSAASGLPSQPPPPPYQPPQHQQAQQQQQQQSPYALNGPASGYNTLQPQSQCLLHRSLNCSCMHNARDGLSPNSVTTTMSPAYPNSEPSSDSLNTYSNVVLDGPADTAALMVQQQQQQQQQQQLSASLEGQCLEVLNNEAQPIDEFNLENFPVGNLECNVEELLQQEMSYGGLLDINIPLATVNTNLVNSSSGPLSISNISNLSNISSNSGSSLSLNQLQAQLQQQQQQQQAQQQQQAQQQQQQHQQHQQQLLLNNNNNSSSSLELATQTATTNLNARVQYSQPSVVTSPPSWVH

Biological target: Flag-tagged Mi-2 (Drosophila melanogaster) (UniProt O97159)
Assay: affinity purification with mass spectrometry; Flag-Mi-2 expressed in S2 cells, anti-Flag immunoprecipitation, washes with 500 mM NaCl, 0.5% Triton X-100, elution with Flag peptide, trypsin digestion, LC-MS/MS; Flag-GFP as control

binding: binds
Substance: Forkhead box O (Foxo), found in the Mi-2 interactome of S2 cells (from UniProt Q95V55 1-613)
